Measured values reported in publication PMC6022672.

Target: HSP70 (Arabidopsis (endogenous in Col-0, pad2.1 and AtECS1 plants))
Assay: co-IP; about 3 mg total protein of Col-0, pad2.1 and AtECS1 incubated overnight at 4 °C with protein A magnetic beads and rabbit polyclonal anti-HSP70 antibody; pellet washed three times; eluate blotted with rabbit polyclonal anti-GST phi antibody

B1: Glutathione-S-transferase F2 (protein, UniProt P46422 1-212)
chain: MAGIKVFGHPASIATRRVLIALHEKNLDFELVHVELKDGEHKKEPFLSRNPFGQVPAFEDGDLKLFESRAITQYIAHRYENQGTNLLQTDSKNISQYAIMAIGMQVEDHQFDPVASKLAFEQIFKSIYGLTTDEAVVAEEEAKLAKVLDVYEARLKEFKYLAGETFTLTDLHHIPAIQYLLGTPTKKLFTERPRVNEWVAEITKRPASEKVQ
- binding: binds

These are yes or no findings as the source states them, for the method shown. Binding seen in cells or lysates may run through a third protein. A result given as binding can be weak or reduced; the word gives no strength.
